Laboratory results published in PMC8387021.

By UniProt entry, the sequences of proteins in these tests, tags left out. Where a name states a change or a piece, a line headed by the entry shows the natural chain unless it says otherwise. Residues count along the entry.
UniProt Q03164, residues 869-1124: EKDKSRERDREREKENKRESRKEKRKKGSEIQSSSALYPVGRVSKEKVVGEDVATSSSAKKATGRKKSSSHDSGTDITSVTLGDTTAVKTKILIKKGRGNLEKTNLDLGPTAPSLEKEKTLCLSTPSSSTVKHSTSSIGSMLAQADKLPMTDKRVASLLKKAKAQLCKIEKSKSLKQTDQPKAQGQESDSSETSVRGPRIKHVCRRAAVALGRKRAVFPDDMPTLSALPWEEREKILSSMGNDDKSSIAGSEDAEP
UniProt O95251: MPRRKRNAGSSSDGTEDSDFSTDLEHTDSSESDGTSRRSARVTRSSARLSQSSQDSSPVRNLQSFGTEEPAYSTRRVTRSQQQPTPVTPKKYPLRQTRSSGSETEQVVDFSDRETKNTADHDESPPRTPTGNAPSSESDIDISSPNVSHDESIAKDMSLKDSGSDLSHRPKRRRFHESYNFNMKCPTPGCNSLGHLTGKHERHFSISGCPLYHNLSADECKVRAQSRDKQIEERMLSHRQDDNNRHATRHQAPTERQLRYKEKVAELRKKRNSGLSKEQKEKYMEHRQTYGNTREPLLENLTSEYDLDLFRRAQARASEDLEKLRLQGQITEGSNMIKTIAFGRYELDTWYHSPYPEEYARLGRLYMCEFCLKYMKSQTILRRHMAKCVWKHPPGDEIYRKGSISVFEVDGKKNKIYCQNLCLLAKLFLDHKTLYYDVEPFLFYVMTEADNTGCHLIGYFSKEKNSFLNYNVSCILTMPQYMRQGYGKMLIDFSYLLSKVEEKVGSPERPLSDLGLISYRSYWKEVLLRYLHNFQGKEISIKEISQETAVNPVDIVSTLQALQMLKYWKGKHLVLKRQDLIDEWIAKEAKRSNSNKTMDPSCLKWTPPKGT
UniProt Q8WYH8: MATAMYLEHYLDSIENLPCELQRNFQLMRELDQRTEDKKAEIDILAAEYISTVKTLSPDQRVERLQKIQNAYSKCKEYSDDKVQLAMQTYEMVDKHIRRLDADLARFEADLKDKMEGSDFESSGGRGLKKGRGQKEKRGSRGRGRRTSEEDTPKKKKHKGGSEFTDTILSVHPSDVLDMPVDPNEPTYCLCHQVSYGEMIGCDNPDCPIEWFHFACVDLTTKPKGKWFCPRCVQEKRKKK

What was measured:
[1] = biological target: fMLL ΔFP ΔTHD2 (UniProt Q03164); assay: co-IP; fanChIP: MNase-treated chromatin fraction of HEK293T cells transiently expressing FLAG-tagged MLL or GAL4 constructs (with xAF4/xAF5Q31 where told); anti-FLAG beads, western blot
[2] = biological target: fMLL 869–1124 (UniProt Q03164); assay: co-IP; chromatin fraction of HEK293T cells expressing fMLL 869-1124 with all HBO1 complex components co-expressed (ING5 replaced by its mutants where told)
[3] = biological target: fMLL ΔFP ΔTHD2 (UniProt Q03164); assay: co-IP; fanChIP: MNase-treated chromatin fraction of HEK293T cells transiently expressing FLAG-tagged MLL or GAL4 constructs (with xAF4/xAF5Q31 where told); anti-FLAG beads, western blot; remark: listed apart in the source

HBO1 (from UniProt O95251 1-611)
binding [1]: binds weakly

ING5 with the ING domain deleted (from UniProt Q8WYH8)
binding [2]: no binding

B1: Xpress-tagged AF4 (protein, UniProt P51825 1-1210)
chain: MAAQSSLYNDDRNLLRIREKERRNQEAHQEKEAFPEKIPLFGEPYKTAKGDELSSRIQNMLGNYEEVKEFLSTKSHTHRLDASENRLGKPKYPLIPDKGSSIPSSSFHTSVHHQSIHTPASGPLSVGNISHNPKMAQPRTEPMPSLHAKSCGPPDSQHLTQDRLGQEGFGSSHHKKGDRRADGDHCASVTDSAPERELSPLISLPSPVPPLSPIHSNQQTLPRTQGSSKVHGSSNNSKGYCPAKSPKDLAVKVHDKETPQDSLVAPAQPPSQTFPPPSLPSKSVAMQQKPTAYVRPMDGQDQAPSESPELKPLPEDYRQQTFEKTDLKVPAKAKLTKLKMPSQSVEQTYSNEVHCVEEILKEMTHSWPPPLTAIHTPSTAEPSKFPFPTKDSQHVSSVTQNQKQYDTSSKTHSNSQQGTSSMLEDDLQLSDSEDSDSEQTPEKPPSSSAPPSAPQSLPEPVASAHSSSAESESTSDSDSSSDSESESSSSDSEENEPLETPAPEPEPPTTNKWQLDNWLTKVSQPAAPPEGPRSTEPPRRHPESKGSSDSATSQEHSESKDPPPKSSSKAPRAPPEAPHPGKRSCQKSPAQQEPPQRQTVGTKQPKKPVKASARAGSRTSLQGEREPGLLPYGSRDQTSKDKPKVKTKGRPRAAASNEPKPAVPPSSEKKKHKSSLPAPSKALSGPEPAKDNVEDRTPEHFALVPLTESQGPPHSGSGSRTSGCRQAVVVQEDSRKDRLPLPLRDTKLLSPLRDTPPPQSLMVKITLDLLSRIPQPPGKGSRQRKAEDKQPPAGKKHSSEKRSSDSSSKLAKKRKGEAERDCDNKKIRLEKEIKSQSSSSSSSHKESSKTKPSRPSSQSSKKEMLPPPPVSSSSQKPAKPALKRSRREADTCGQDPPKSASSTKSNHKDSSIPKQRRVEGKGSRSSSEHKGSSGDTANPFPVPSLPNGNSKPGKPQVKFDKQQADLHMREAKKMKQKAELMTDRVGKAFKYLEAVLSFIECGIATESESQSSKSAYSVYSETVDLIKFIMSLKSFSDATAPTQEKIFAVLCMRCQSILNMAMFRCKKDIAIKYSRTLNKHFESSSKVAQAPSPCIASTGTPSPLSPMPSPASSVGSQSSAGSVGSSGVAATISTPVTIQNMTSSYVTITSHVLTAFDLWEQAEALTRKNKEFFARLSTNVCTLALNSSLVDLVHYTRQGFQQLQELTKTP
binding [3]: binds

Read-outs that look alike come from different tables or passages of the source. No constants are given. Whether binding was seen depends on the method and setting. In cells and extracts the contact can be indirect. For part of these data: Binding can be weak; no strength is given. For part of these data: Tags and fused reporters may be left off the sequences shown.
